From PubChem BioAssay AID2417 (National Center for Advancing Translational Sciences (NCATS), 2010)
About 4,300 (3.1%) of roughly 140,000 compounds were called active. Inconclusive means that the source gave no clear call. Such entries were picked first, then a sample of the others.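 Rule for the calls: active = readout at or below -70, meaning at least 70% loss of cells showing the perinucleolar compartment, a nuclear body marking cancer cells; inconclusive = readout between -30 and a set limit; inactive = the rest.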

assay: High Content Assay for Compounds that inhibit the Assembly of the Perinucleolar Compartment; conditions: PC3M PTB-GFP, PNC prevalence imaging, 16 h; at 10 µM; stronger effect = lower value;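 note: plate controls were DMSO wells for no effect and camptothecin positive control wells for full effect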
How it was run: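 PC3M cells stably expressing PTB-GFP, 750–1000 cells/well, treated 16 h at 37 °C with compound (23 nl of library stock), in duplicate. After paraformaldehyde fixation and Hoechst stain, imaged at 20x; PNC prevalence scored by image analysis.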

SMILES	activity change (PNC), negative = inhibition
S=C(Nc1ccccc1)Nc1ccc(OCc2ccc(Cl)cc2Cl)cc1	inconclusive: -66.9%
C/C(Cl)=C\Cn1c(N2CCCCCC2)nc2c1c(=O)n(C)c(=O)n2C	inactive: -15.6%
CCCc1cc(C(=O)Nc2sc3c(c2C(=O)OCC)CCCC3)no1	inconclusive: -31.4%
O=C(O)C1C2C=CC3(CN(c4cccc(C(F)(F)F)c4)C(=O)C13)O2 (centres undefined)	inconclusive: -38.9%
COc1ccc(CCNc2nc3ccccc3n3nnnc23)cc1OC	inactive: 1.65%
CC(C)CNC(=O)c1ccccc1NC(=O)c1ccccc1N(C)S(C)(=O)=O	inconclusive: -33.1%
CCOC(=O)CN1C(=O)CSc2ccccc21	inactive: -4.22%
O=C1C(NS(=O)(=O)c2cccs2)=C(N2CCN(c3cccc(Cl)c3)CC2)C(=O)c2ccccc21	inactive: -12%
CC1CCCC(NC(=O)COC(=O)COc2ccc(Cl)cc2)C1C (centres undefined)	inconclusive: -74.1%
CCC(CC)NC(=O)COC(=O)c1ccc(NS(=O)(=O)c2ccc3c(c2)OCCO3)cc1	inactive: 39.4%
CCC(=O)c1c[nH]c(C(=O)NCCCn2ccnc2)c1	inconclusive: -45.8%
c1ccc2c(c1)CCN(c1nc3cc4c(cc3s1)OCO4)C2	inconclusive: -66.7%
Cc1ccc(Cl)cc1N1CCN(C(=O)c2ccc(CN3CCOCC3)cc2)CC1	inconclusive: -37.2%
Cc1ccc(/C=C2\SC(=S)N(C(Cc3ccccc3)C(=O)O)C2=O)cc1 (centres undefined)	inconclusive: -31.8%
Cc1ccc(N2C(=O)CSC2c2cccnc2)cc1F (centres undefined)	inconclusive: -48.3%
CCOCCCNC(=O)C(c1ccc(Cl)cc1)N(Cc1cccs1)C(=O)CNC(C)=O (centres undefined)	inconclusive: -59.1%
COc1ccc(CC(=O)Nc2ccc(-c3noc(-c4ccc(Cl)cc4)n3)cc2)cc1	inactive: 62.9%
O=C(NC(Nc1nc2ccc([N+](=O)[O-])cc2s1)(C(F)(F)F)C(F)(F)F)c1ccccc1Cl	active: -119%
O=c1c2cn[nH]c2[nH]c(=S)n1-c1ccccc1	inconclusive: -55.4%
Cc1[nH]c2ccccc2c1C(=O)COC(=O)c1c(-c2c(F)cccc2Cl)noc1C	inconclusive: -72.9%
COc1cc2[nH]c(=S)nc(NCC3CCCO3)c2cc1OC (centres undefined)	inconclusive: -58.3%
C=CCOC(=O)C1=C(C)NC(SCC(=O)N(CC)CC)=C(C#N)C1c1ccco1 (centres undefined)	inactive: 15.8%

4 entries already listed, sorted by molecular weight, falling.
SMILES	activity change (PNC), negative = inhibition
C=CCOC(=O)C1=C(C)NC(SCC(=O)N(CC)CC)=C(C#N)C1c1ccco1 (centres undefined)	inactive: 15.8%
CCCc1cc(C(=O)Nc2sc3c(c2C(=O)OCC)CCCC3)no1	inconclusive: -31.4%
O=C(O)C1C2C=CC3(CN(c4cccc(C(F)(F)F)c4)C(=O)C13)O2 (centres undefined)	inconclusive: -38.9%
c1ccc2c(c1)CCN(c1nc3cc4c(cc3s1)OCO4)C2	inconclusive: -66.7%

(list continues)

SMILES	activity change (PNC), negative = inhibition
COc1ccc2[nH]c(C)c(C(=O)CN3CCN(C/C=C/c4ccccc4)CC3)c2c1	inconclusive: -40%
Cc1sc(NC(=O)c2ccco2)c(C(c2cccnc2)N2CCC(C)CC2)c1C (centres undefined)	inconclusive: -61%
COn1c2c(c3c4no[n+]([O-])c4ccc31)CCCC2	inconclusive: -37%
CN(C)S(=O)(=O)n1cnc(-c2ccccc2)c1-c1ccccc1	active: -117%
Cc1c(CCO)c(=O)[nH]n1C(=O)c1ccc(F)cc1	inactive: -16.4%
COc1ccc2cc(CCNC(=O)C3CCCC3)c(=O)[nH]c2c1	inconclusive: -40.9%
Cc1nonc1NC(=O)CSc1nnc(-c2ccoc2C)n1C	inconclusive: -52.5%
Cc1nc2cc(C(=O)OCC(=O)Nc3ccc(C#N)cc3)ccc2n1-c1ccccc1	inconclusive: -42.5%
CCOc1ccccc1NC(=O)CN(c1ccc(C)cc1)S(=O)(=O)c1c(C)noc1C	active: -132%
O=C1CC(c2ccc(F)cc2)Cc2nc(NCc3ccco3)ncc21 (centres undefined)	inconclusive: -61.7%
COc1ccc(N(CCC#N)S(=O)(=O)c2cccc3nsnc23)cc1	inconclusive: -62.2%
CC(=O)Nc1ccc(NC(=O)c2cc(C)nn2-c2ccccc2)cc1	inconclusive: -69%
Cc1ccc(C)c(N2CCN(C(=O)CCCN3C(=S)NC(C)(C)CC3C)CC2)c1 (centres undefined)	inactive: 0%
O=C(Nc1cccnc1)c1ccc(Oc2ccccc2)cc1	inconclusive: -50.8%
CCN(CC)C(=O)c1cccc2c1C(=O)c1ccccc1-2	inconclusive: -63.3%
COc1ccc(O[C@H]2C=C[C@@H](c3ccccc3)O[C@@H]2COC(=O)CC/C(C)=N/O[C@@H](C)CN2CCCCc3nc(C)c(C)cc32)cc1	active: -82.8%
CC(=O)N1c2ccccc2Nc2ccccc21	inconclusive: -46.7%
O=C(C1CCCCN1S(=O)(=O)c1ccccc1)N1CCN(C(c2ccccc2)c2ccccc2)CC1 (centres undefined)	inconclusive: -64.1%
Cc1ccc(C(=O)c2ccc([N+](=O)[O-])cc2)cc1	inactive: 44.8%
Cc1onc(-c2ccccc2)c1C(=O)N/N=C/c1cccc(O)c1	inconclusive: -32.3%
C=CCN(CC=C)S(=O)(=O)c1ccc(F)cc1	inconclusive: -49.8%
COC(=O)Cc1cc(=O)n2[nH]c(SC)nc2n1	inconclusive: -60.9%
